The values that follow come from article PMC4081113.

No signal at the amounts used counts as a negative.

The data set has as its target human serum albumin (HSA) (human) (UniProt P02768). As to the kind of experiment: colorimetric AuNP/CTAB aggregation assay (A650/A520). Particulars: 1 uM protein, 4 nM CTAB; 20 mM HEPES pH 7.4, room temperature, 20 nM aptamer with protein 20 min, then 4 nM CTAB 20 min, then AuNPs 5 min (200 uL final); commercial protein; single-stranded DNA.

With “GTTCGATTGGATTGTGCCGGAAGTGCTGGCTCGAAC [pL1 aptamer]”, the binding result was “no binding”.
